Biological target: DYRK1B (Homo sapiens (Human), UniProt Q9Y463)
Assay: DYRK1B kinase assay (HotSpot, Reaction Biology)
Assay type: biochemical

Chains of the proteins cited; added tags and fusions are not shown.
UniProt Q9Y463, whole entry: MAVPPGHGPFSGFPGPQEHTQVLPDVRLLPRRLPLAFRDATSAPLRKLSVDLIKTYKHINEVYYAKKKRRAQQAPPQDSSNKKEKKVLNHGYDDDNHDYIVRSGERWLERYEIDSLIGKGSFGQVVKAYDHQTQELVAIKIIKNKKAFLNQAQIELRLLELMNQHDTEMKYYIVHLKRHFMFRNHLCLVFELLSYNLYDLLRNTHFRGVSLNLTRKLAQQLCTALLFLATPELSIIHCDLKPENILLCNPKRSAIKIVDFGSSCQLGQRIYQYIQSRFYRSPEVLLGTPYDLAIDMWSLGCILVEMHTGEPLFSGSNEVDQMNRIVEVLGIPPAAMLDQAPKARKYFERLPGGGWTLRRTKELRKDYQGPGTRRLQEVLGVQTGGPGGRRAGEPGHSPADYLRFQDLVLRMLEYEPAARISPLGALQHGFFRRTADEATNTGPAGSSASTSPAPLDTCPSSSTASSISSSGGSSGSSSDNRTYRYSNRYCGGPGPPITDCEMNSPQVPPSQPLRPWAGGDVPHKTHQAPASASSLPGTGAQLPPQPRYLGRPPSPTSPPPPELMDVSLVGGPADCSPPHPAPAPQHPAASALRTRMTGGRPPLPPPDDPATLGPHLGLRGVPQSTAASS

COc1ccc2c(c1)[nH]c1c(C)nccc12 [Harmine, reference compound]
IC50: 27.9 nM

From US9446044B2, “DYRK1 inhibitors and uses thereof” (DIAXONHIT, priority 2011, dated 2016)
